# Source: article PMC7337926
# Protein sequences, listed by entry. Tags and fused reporters are not part of them. Lines headed by an entry give the natural chain unless they say otherwise; changes in a name come on top.
# UniProt Q6EVK6: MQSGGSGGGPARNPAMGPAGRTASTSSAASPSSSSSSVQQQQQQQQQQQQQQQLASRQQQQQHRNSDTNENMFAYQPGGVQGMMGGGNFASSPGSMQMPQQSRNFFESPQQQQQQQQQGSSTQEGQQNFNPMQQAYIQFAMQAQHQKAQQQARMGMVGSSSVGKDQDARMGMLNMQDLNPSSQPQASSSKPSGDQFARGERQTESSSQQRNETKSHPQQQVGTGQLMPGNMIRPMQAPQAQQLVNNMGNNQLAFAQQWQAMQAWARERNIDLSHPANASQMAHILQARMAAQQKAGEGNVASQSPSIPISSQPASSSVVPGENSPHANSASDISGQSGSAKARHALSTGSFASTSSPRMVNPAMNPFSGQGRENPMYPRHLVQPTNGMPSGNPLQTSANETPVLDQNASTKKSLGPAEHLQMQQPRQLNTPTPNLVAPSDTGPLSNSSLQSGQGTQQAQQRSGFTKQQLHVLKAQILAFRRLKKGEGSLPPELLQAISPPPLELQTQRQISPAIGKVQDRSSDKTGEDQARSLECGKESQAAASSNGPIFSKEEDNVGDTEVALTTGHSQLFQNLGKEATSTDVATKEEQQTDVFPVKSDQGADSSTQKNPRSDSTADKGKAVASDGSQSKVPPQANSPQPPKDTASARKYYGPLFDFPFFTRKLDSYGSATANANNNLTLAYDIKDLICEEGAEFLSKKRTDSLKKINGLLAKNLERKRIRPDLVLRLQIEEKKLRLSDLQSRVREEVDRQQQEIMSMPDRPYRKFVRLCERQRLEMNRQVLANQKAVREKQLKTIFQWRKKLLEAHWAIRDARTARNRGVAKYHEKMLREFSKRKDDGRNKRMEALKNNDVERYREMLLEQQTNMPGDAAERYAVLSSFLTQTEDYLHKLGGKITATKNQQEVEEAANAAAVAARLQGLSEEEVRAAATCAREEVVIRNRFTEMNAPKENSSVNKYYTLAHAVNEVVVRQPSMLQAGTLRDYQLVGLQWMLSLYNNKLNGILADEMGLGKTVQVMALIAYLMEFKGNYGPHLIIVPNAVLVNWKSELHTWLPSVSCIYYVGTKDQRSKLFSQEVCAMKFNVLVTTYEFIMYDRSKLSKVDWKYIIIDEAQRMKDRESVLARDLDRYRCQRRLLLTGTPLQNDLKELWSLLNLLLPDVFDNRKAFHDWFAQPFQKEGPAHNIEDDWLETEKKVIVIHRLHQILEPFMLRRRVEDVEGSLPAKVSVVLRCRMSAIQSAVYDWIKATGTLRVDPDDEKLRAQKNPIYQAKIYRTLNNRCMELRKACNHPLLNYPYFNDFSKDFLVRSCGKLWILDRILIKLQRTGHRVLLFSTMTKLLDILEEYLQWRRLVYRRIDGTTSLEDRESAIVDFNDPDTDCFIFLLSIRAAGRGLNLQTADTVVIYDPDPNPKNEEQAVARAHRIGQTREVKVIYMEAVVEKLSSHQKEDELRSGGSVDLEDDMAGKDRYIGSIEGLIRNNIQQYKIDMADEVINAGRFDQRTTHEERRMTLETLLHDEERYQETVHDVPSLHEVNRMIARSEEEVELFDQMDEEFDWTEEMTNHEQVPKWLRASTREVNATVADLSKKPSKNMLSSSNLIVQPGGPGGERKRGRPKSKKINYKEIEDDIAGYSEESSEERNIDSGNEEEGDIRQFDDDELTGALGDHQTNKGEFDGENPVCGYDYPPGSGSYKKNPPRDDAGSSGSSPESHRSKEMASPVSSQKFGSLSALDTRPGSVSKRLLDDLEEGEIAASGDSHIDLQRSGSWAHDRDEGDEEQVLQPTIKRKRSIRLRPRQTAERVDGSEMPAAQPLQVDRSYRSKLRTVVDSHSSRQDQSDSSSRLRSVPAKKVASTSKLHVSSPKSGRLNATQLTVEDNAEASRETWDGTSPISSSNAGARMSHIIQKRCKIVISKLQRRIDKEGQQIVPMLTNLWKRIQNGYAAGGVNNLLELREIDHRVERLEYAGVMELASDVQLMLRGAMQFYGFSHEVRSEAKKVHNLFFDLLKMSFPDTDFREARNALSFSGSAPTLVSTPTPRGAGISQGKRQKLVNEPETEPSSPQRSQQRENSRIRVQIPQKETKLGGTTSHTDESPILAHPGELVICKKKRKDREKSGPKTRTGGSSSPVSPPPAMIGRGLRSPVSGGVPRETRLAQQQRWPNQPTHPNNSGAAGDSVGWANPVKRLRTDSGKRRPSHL
# UniProt F4IAT2: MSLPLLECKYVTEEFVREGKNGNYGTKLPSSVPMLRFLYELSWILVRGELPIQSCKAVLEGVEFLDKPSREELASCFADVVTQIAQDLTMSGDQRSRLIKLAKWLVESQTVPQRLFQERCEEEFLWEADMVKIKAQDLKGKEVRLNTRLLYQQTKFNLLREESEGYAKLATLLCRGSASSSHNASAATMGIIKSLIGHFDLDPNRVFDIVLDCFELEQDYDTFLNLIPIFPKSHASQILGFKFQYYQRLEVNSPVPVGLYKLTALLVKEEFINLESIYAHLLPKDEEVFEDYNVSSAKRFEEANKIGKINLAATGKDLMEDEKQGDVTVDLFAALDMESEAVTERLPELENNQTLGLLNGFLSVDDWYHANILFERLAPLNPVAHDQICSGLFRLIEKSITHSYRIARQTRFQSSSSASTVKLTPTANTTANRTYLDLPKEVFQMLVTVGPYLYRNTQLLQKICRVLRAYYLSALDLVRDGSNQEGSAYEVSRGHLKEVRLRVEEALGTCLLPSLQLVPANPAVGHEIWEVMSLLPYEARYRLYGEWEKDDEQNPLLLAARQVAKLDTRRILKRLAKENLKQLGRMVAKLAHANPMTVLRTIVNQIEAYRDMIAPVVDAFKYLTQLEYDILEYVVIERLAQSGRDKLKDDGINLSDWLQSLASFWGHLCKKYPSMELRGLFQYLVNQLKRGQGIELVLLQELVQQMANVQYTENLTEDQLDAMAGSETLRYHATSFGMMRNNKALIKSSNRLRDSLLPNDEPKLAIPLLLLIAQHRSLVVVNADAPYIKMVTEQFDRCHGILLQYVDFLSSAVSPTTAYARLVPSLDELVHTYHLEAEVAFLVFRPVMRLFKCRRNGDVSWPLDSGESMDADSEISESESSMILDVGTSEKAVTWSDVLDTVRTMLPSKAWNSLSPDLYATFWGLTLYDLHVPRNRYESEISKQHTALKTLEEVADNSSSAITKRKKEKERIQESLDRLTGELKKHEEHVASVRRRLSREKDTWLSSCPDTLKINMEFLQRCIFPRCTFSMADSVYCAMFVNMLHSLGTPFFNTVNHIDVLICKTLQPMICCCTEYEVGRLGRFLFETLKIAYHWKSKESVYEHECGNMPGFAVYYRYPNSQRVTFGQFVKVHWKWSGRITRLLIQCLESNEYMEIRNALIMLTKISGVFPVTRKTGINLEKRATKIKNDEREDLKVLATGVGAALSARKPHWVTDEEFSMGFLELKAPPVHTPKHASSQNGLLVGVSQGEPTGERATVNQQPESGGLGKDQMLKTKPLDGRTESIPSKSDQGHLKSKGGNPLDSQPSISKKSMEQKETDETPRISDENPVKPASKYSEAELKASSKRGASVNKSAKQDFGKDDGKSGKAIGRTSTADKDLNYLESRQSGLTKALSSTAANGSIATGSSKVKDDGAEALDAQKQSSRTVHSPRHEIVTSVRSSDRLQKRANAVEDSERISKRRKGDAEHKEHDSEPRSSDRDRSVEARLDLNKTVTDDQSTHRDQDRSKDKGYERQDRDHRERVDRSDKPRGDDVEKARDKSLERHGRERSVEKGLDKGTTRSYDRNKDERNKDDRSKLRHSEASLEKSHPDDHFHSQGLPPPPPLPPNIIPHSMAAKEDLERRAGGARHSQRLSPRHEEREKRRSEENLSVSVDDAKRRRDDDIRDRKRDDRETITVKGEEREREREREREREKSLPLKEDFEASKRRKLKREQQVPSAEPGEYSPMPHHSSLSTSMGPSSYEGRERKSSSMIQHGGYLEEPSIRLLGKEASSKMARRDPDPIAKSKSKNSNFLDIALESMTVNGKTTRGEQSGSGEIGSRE
# UniProt F4JLJ9: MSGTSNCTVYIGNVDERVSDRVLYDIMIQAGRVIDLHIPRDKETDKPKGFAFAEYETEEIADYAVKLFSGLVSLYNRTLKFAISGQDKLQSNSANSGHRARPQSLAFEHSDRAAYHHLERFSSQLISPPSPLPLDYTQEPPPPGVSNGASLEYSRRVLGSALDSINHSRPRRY
# UniProt Q9SP32: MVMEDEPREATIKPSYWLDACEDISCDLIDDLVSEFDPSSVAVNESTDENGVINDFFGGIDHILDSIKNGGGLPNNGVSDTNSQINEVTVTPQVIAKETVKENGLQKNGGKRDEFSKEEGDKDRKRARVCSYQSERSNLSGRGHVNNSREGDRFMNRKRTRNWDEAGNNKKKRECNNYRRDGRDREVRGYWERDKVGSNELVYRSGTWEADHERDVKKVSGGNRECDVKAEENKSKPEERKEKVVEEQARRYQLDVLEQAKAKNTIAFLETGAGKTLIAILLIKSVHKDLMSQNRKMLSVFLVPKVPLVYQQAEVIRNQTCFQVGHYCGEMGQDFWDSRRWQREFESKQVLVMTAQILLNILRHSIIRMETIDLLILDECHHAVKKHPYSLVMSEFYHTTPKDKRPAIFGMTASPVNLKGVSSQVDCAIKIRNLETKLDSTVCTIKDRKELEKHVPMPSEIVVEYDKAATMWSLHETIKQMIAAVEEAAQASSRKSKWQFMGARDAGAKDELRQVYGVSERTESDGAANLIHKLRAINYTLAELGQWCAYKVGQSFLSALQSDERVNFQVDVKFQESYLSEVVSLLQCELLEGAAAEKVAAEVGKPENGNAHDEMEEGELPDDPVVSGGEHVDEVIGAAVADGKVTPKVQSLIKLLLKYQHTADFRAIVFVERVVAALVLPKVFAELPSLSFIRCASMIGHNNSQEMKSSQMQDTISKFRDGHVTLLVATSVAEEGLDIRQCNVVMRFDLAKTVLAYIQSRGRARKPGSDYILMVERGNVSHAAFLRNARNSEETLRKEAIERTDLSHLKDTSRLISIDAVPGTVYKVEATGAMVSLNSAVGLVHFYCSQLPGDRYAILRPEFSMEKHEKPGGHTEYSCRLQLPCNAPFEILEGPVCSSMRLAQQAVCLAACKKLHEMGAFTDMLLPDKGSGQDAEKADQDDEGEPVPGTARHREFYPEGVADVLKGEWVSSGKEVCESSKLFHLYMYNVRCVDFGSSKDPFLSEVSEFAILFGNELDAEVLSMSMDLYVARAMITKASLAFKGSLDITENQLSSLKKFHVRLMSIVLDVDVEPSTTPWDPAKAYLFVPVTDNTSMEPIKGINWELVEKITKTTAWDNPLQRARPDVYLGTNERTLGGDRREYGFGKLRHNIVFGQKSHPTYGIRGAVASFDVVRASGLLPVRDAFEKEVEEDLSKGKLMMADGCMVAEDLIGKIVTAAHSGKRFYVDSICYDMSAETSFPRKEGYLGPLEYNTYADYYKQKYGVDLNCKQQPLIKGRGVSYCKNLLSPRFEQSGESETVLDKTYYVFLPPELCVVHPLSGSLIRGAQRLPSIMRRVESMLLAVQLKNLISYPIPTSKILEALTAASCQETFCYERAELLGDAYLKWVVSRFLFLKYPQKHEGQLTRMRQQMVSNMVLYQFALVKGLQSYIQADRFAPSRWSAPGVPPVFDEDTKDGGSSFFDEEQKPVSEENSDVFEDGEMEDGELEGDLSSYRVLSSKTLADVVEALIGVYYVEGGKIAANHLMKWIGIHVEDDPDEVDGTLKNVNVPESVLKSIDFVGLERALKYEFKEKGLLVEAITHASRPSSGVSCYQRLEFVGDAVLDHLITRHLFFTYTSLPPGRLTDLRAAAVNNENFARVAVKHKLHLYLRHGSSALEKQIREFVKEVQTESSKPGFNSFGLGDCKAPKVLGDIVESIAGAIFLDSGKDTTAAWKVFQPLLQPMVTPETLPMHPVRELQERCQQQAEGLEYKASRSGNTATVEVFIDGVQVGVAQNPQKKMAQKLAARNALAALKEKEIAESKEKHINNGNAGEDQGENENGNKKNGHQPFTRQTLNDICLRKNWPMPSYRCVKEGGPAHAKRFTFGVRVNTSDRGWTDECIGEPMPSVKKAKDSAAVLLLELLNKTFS
# No constants are given. Whether binding was seen depends on the method and setting. Binding seen in cells or lysates may run through a third protein. Here binding means that the protein was enriched with, or labelled near, the bait; the list need not be complete. Where a sequence is shown, tags or fusion partners need not be part of it.
# T1: FLAG-tagged SERRATE (FLAG-SE) (Arabidopsis thaliana) (UniProt Q9ZVD0)
# T1 sequence: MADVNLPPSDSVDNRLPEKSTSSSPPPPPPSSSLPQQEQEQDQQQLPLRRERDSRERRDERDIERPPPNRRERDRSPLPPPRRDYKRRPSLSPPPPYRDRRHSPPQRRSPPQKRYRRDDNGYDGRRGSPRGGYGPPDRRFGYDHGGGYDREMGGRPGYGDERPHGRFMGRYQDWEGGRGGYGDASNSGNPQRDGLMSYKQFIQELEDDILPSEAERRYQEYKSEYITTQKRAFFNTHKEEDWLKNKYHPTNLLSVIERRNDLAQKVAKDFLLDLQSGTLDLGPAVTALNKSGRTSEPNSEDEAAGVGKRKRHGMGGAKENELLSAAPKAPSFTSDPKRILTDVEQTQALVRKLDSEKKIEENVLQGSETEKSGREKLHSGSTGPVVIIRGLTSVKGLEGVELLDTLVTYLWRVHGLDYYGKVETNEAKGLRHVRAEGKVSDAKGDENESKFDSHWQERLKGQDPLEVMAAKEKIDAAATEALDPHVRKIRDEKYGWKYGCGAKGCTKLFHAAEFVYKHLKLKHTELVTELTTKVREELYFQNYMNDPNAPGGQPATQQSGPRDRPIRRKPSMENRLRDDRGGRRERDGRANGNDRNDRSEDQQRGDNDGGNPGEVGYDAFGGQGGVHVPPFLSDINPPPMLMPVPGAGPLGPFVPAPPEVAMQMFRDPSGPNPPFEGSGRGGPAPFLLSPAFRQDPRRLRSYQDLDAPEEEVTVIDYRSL
# B1: CBP80 (protein, UniProt Q9SIU2 1-848)
# chain: MSNWKTLLLRIGEKGPEYGTSSDYKDHIETCFGVIRREIERSGDQVLPFLLQCAEQLPHKIPLYGTLIGLLNLENEDFVQKLVESVHANFQVALDSGNCNSIRILLRFMTSLLCSKVIQPASLIVVFETLLSSAATTVDEEKGNPSWQPQADFYVICILSSLPWGGSELAEQVPDEIERVLVGIQAYLSIRKNSSTSGLNFFHNGEFESSLAEKDFVEDLLDRIQSLASNGWKLESVPRPHLSFEAQLVAGKFHELRPIKCMEQPSPPSDHSRAYSGKQKHDALTRYPQRIRRLNIFPANKMEDVQPIDRFVVEEYLLDVLFYLNGCRKECASYMANLPVTFRYEYLMAETLFSQILLLPQPPFKTLYYTLVIMDLCKALPGAFPAVVAGAVRALFEKISDLDMESRTRLILWFSHHLSNFQFIWPWEEWAFVLDLPKWAPKRVFVQEILQREVRLSYWDKIKQSIENATALEELLPPKAGPNFMYSLEEGKEKTEEQQLSAELSRKVKEKQTARDMIVWIEETIYPVHGFEVTLTIVVQTLLDIGSKSFTHLVTVLERYGQVFSKLCPDNDKQVMLLSQVSTYWKNNVQMTAVAIDRMMGYRLVSNQAIVRWVFSPENVDQFHVSDQPWEILGNALNKTYNRISDLRKDISNITKNVLVAEKASANARVELEAAESKLSLVEGEPVLGENPAKMKRLKSTVEKTGEAELSLRESLEAKEALLNRALSETEVLLLLLFQSFLGVLKERLPDPTKVRSVQDLKSIGAEDDKPSAMDVDSENGNPKKSCEVGEREQWCLSTLGYLTAFTRQYASEIWPHMEKLESEVFSGEDVHPLFLQAISSALQFPLH
# B2: THO6 (protein, UniProt Q8L4M1 1-367)
# chain: MYGDATNWNEDEYRESILKEREIETRTVFRTAWAPPARISNPDAFVVASSDGTLAFHSLNSLVSQSASFGYSKGQDVMVAEPERVVRAHEGPAYDVKFYGEDEDALLLSCGDDGRVRGWKWREFAESDVSLHLKENHLKPLLELINPQHKGPWGALSPMPEINAMSVDPQSGSVFTAAGDSCAYCWDVESGKIKMTFKGHSDYLHTVVSRSSASQILTGSEDGTARIWDCKTGKCVKVIGSQDKKSRLRVSSMALDGSESWLVCGQGKNLALWNLPASECVQTIPIPAHVQDVMFDEKQILTVGAEPLLRRFDLNGALLSQIHCAPCSVFSISLHPAGVVAVGGYGGIVDVISQFGSHLCTFRSSSL
# B3: THO5A (protein, UniProt F4HRC1 1-452)
# chain: MQSEMAIDTVATAEKSPLELLQQTKASVEAIIAKMLSIKQQGTPKSENRELLTQMFLNFINLRQANRSILIEEEKVRTETEIAKSPVDFTTLELHNLMYEKSHYLKANKASRDFKSRYPNIDLISEQDFFSDAPEAIKSQTLSNDSSHDLMLKRLNFELHQRKELCKLRVRLEQQKKSLLESNAERNKFLSSLPVHLKSLKKASLPVQSQLSLQNQKKLKYHNLAELLPPPLYVIYSQFMALKEAFEENIDVEVSGSLKDAQTYARQQAEQNSESLRLEVGVDEERQRKRLKKVGSDEGGVYQVHPLKVVLHVYDDEITDPKSHELVMLKFEYLLKLNVVCVGIEESEDGLEKNILCNLFPDDSGLEPPHQSAKLILGNDHVFDKSRTSRPYKWAQHLAGIETLPEMSPFFTDKDIQYSDTAKGYASASDHRNVQTVLQRIRSQKKTKLTLV
# B4: CDC5 (protein, UniProt P92948 1-844)
# chain: MRIMIKGGVWKNTEDEILKAAVMKYGKNQWARISSLLVRKSAKQCKARWYEWLDPSIKKTEWTREEDEKLLHLAKLLPTQWRTIAPIVGRTPSQCLERYEKLLDAACTKDENYDAADDPRKLRPGEIDPNPEAKPARPDPVDMDEDEKEMLSEARARLANTRGKKAKRKAREKQLEEARRLASLQKRRELKAAGIDGRHRKRKRKGIDYNAEIPFEKRAPAGFYDTADEDRPADQVKFPTTIEELEGKRRADVEAHLRKQDVARNKIAQRQDAPAAILQANKLNDPEVVRKRSKLMLPPPQISDHELEEIAKMGYASDLLAENEELTEGSAATRALLANYSQTPRQGMTPMRTPQRTPAGKGDAIMMEAENLARLRDSQTPLLGGENPELHPSDFTGVTPRKKEIQTPNPMLTPSMTPGGAGLTPRIGLTPSRDGSSFSMTPKGTPFRDELHINEDMDMHESAKLERQRREEARRSLRSGLTGLPQPKNEYQIVAQPPPEESEEPEEKIEEDMSDRIAREKAEEEARQQALLKKRSKVLQRDLPRPPAASLAVIRNSLLSADGDKSSVVPPTPIEVADKMVREELLQLLEHDNAKYPLDDKAEKKKGAKNRTNRSASQVLAIDDFDENELQEADKMIKEEGKFLCVSMGHENKTLDDFVEAHNTCVNDLMYFPTRSAYELSSVAGNADKVAAFQEEMENVRKKMEEDEKKAEHMKAKYKTYTKGHERRAETVWTQIEATLKQAEIGGTEVECFKALKRQEEMAASFRKKNLQEEVIKQKETESKLQTRYGNMLAMVEKAEEIMVGFRAQALKKQEDVEDSHKLKEAKLATGEEEDIAIAMEASA
# B5: THO1 (protein, UniProt Q93VM9 1-599)
# chain: MDAFRDAILQRAPIETFALKTVQHFIQPQKQTKLAQDENQMLENMLRTLLQELVAAAAQSGEQIMQYGQLIDDDDDDDDIHGQIPHLLDVVLYLCEKEHVEGGMIFQLLEDLTEMSTMKNCKDVFGYIESKQDILGKQELFARGKLVMLRTCNQLLRRLSKANDVVFCGRILMFLAHFFPLSERSAVNIKGVFNTSNETKYEKDPPKGISVDFNFYKTFWSLQEYFCNPASLTSASTKWQKFSSSLAVVLNTFDAQPLSEEEGEANSLEEEAATFNIKYLTSSKLMGLELKDSSFRRHILLQCLIMFDYLRAPGKNDKDLPSETMKEELKSCEDRVKKLLEITPPKGKEFLRAVEHILEREKNWVWWKRDGCPPFEKQPIDKKSPNAGQKKRRQRWRLGNKELSQLWRWADQNPNALTDSQRVRTPDIADYWKPLAEDMDPSAGIEDEYHHKNNRVYCWKGLRFTARQDLEGFSRFTEMGIEGVVPVELLPPEVRSKYQAKPNEKAKRAKKEETKGGSHETEGNQIGVSNSEAEAEGGRGDAETMESDAIADTPTPEEQQRLGGSDTENGQEAGQIEDGETEEAGLMDTDLDHPPMPVS
# B6: THO4B (protein, UniProt Q8L719 1-292)
# chain: MSGGLDMSLDDIIKSNRKPTGSRGRGGIGGGNNTGGRGGSGSNSGPSRRFANRVGARTAPYSRPIQQQQAHDAMWQNDVFATDASVAAAFGHHQTAVVGGGSSIETGTKLYISNLDYGVSNEDIKELFSEVGDLKRYGIHYDRSGRSKGTAEVVFSRRGDALAAVKRYNNVQLDGKLMKIEIVGTNLSAPALPILATAQIPFPTNGILGNFNENFNGNFNGNFNGNFRGRGRGGFMGRPRGGGFGGGNFRGGRGARGRGGRGSGGRGRDENVSAEDLDAELDKYHKEAMETS
# B7: CPL1 (protein, UniProt Q5YDB6 1-967)
# chain: MYSNNRVEVFHGDGRLGELEIYPSRELNQQQDDVMKQRKKKQREVMELAKMGIRISHFSQSGERCPPLAILTTISSCGLCFKLEASPSPAQESLSLFYSSCLRDNKTAVMLLGGEELHLVAMYSENIKNDRPCFWAFSVAPGIYDSCLVMLNLRCLGIVFDLDETLVVANTMRSFEDKIDGFQRRINNEMDPQRLAVIVAEMKRYQDDKNLLKQYIESDQVVENGEVIKVQSEIVPALSDNHQPLVRPLIRLQEKNIILTRINPMIRDTSVLVRMRPSWEELRSYLTAKGRKRFEVYVCTMAERDYALEMWRLLDPEGNLINTNDLLARIVCVKSGFKKSLFNVFLDGTCHPKMALVIDDRLKVWDEKDQPRVHVVPAFAPYYSPQAEAAATPVLCVARNVACGVRGGFFRDFDDSLLPRIAEISYENDAEDIPSPPDVSHYLVSEDDTSGLNGNKDPLSFDGMADTEVERRLKEAISASSAVLPAANIDPRIAAPVQFPMASASSVSVPVPVQVVQQAIQPSAMAFPSIPFQQPQQPTSIAKHLVPSEPSLQSSPAREEGEVPESELDPDTRRRLLILQHGQDTRDPAPSEPSFPQRPPVQAPPSHVQSRNGWFPVEEEMDPAQIRRAVSKEYPLDSEMIHMEKHRPRHPSFFSKIDNSTQSDRMLHENRRPPKESLRRDEQLRSNNNLPDSHPFYGEDASWNQSSSRNSDLDFLPERSVSATETSADVLHGIAIKCGAKVEYKPSLVSSTDLRFSVEAWLSNQKIGEGIGKSRREALHKAAEASIQNLADGYMRANGDPGPSHRDATPFTNENISMGNANALNNQPFARDETALPVSSRPTDPRLEGSMRHTGSITALRELCASEGLEMAFQSQRQLPSDMVHRDELHAQVEIDGRVVGEGVGSTWDEARMQAAERALSSVRSMLGQPLHKRQGSPRSFGGMSNKRLKPDFQRSLQRMPSSGRYS
# B8: CBP20 (protein, UniProt Q9XFD1 1-257)
# chain: MASLFKEQAKLSAYRDRRFSGTQEEFDEALRASTTVYIGNVSFYTTEEQLYELFSRAGEIKKIIMGLDKNTKTPCGFCFVLFYSREDTEDAVKYISGTILDDRPIRVDFDWGFQEGRQWGRGRSGGQVRDEYRTDYDPARGGYGKLVQKELEAQRQLVDYGTGSLGAYPQAAPTNYGNGRRGGGNYGQGGQNRHGRGDYHRKRQRDDDRYGRDNSRRNTDHESRRDTDSDMRPEKNPRFRESGDSDDDGEDDRKRRS
# Molecular target: T1, FLAG-tagged SERRATE (FLAG-SE) (Arabidopsis thaliana)
# Test: affinity purification with mass spectrometry; FLAG-SE as bait from flower extracts (50 mM Tris HCl pH 8.0, 50 mM NaCl, 1% Triton X-100), anti-FLAG magnetic microbeads, LC-MS/MS; mock IPs in Col-0
row,binding,Molecule
1,binds,BRM (from UniProt Q6EVK6 1-2193)
2,binds,THO7
3,binds,ZCCHC8A (endogenous)
4,binds,THO2 (from UniProt F4IAT2 1-1823)
5,binds,RBM7 (endogenous) (from UniProt F4JLJ9)
6,binds,Dicer like 1 (DCL1) (from UniProt Q9SP32 1-1909)
7,binds,ZCCHC8B (endogenous)
8,binds,HOS5
9,binds,B1
10,binds,B2
11,binds,B3
12,binds,B4
13,binds,B5
14,binds,B6
15,binds,B7
16,binds,B8
